Taken from: PubChem BioAssay AID743454 (Peter MacCallum Cancer Centre, 2014)

Assay: 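Search for knock-downs that restore vorinostat killing in resistant colon cancer cells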 (primary screen)
System: human HCT116-VR colon cancer cells, selected for vorinostat resistance
Knock-down reagent: siRNA pool against human genes, 40 nM siRNA pool
Time to read-out: vorinostat for 24 h, read-out about 72 h after transfection
Treatment: vorinostat at 2.5 µM final
Read-out: 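Cell viability by CellTiter-Fluor and caspase 3/7 activity by luminescence, each scaled to mock wells per plate, duplicates averaged, then robust z-scored over all plates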
Reading the numbers: viability robust z-score: higher = more viable cells than screen typical; caspase robust z-score: higher = more caspase 3/7 activity than screen typical
Call rule: 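Hits are knock-downs in viability class RV1/RV2 or caspase class CA1/CA2, excluding ones that killed cells in the no-drug cell-count arm; hits then retested with single siRNAs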
This is an unselected part of about 18,000 reagents. In the full data, 450 (2.5%) were called active. 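Single biological run; no consistent viability z cut-off exists, so the class columns, not z-scores, define the calls.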 Reagent sequences are not shown.

gene symbol	viability hit class	caspase hit class	viability robust z-score	caspase robust z-score	call
PKP4	no change	no change	-1.09	-1.31	inactive
DHRS1	no change	no change	1.45	-0.8	inactive
CNST	no change	no change	-0.8	0.32	inactive
CDC14B	no change	no change	-0.96	-0.82	inactive
HDAC2	no change	no change	0.42	0.12	inactive
STAT1	no change	no change	0.23	1.61	inactive
IL12RB1	no change	no change	0.52	0.37	inactive
ADORA3	no change	no change	-0.92	-0.96	inactive
GOLGA8B	no change	no change	-0.38	-0.68	inactive
CHFR	no change	no change	-1.95	1.46	inactive
PEA15	no change	no change	0.08	-1.02	inactive
COQ10A	no change	no change	-1.02	-0.74	inactive
METTL25	no change	no change	-0.69	-1.15	inactive
TAF1	no change	no change	-0.32	-0.54	inactive
OR11L1	no change	no change	-0.01	-0.4	inactive
SVBP	no change	no change	-0.2	-1.09	inactive
RPS27L	no change	no change	-0.1	0.3	inactive
SLC25A2	no change	no change	-0.86	-0.6	inactive
SEMA3A	no change	no change	-0.74	0.73	inactive
CEL	no change	no change	0.8	0.38	inactive
FAM167B	no change	no change	-0.44	-0.97	inactive
OFD1	no change	no change	1.2	-0.65	inactive
XAGE5	no change	no change	0.06	0.54	inactive
NCCRP1	no change	no change	-1.36	1.4	inactive
OR4A15	no change	no change	0.32	-0.83	inactive
DNER	no change	CA2 (caspase activation)	-2.54	5.98	active
OR52B4	no change	no change	-0.12	0.98	inactive
TNFSF12	no change	no change	-0.5	-0.94	inactive
CDR2	no change	no change	1.02	-0.18	inactive
C16orf82	no change	no change	1.27	-0.12	inactive
MARVELD3	no change	no change	1.42	1.18	inactive
OR5D18	no change	no change	0.47	0.09	inactive
SMARCD3	no change	no change	0.18	1.02	inactive
MED15	no change	no change	1.16	-0.48	inactive
IYD	no change	no change	0.88	-0.14	inactive
CEACAM19	no change	no change	-0.19	3.91	inactive
PHKA2	no change	no change	-0.78	-0.57	inactive
SLC9B1	no change	no change	-0.08	-0.42	inactive
HCST	no change	no change	0.11	-0.34	inactive

Copied from the listing (3 entries):
gene symbol	viability hit class	caspase hit class	viability robust z-score	caspase robust z-score	call
NCCRP1	no change	no change	-1.36	1.4	inactive
OR4A15	no change	no change	0.32	-0.83	inactive
DNER	no change	CA2 (caspase activation)	-2.54	5.98	active
